For some assays here: Weaker means in comparison with the reference protein, sequence or condition of that experiment. For some assays here: For at least one entry, the source does not settle the construct or the ends of the probe. For some assays here: At least one verdict was read from the data and is not stated in words by the source.

By UniProt entry, the sequences of proteins in these tests, tags left out. Residues count along the entry.
UniProt Q9HC16, 191-384 L234K/C243A/F310K/C321A/C356A: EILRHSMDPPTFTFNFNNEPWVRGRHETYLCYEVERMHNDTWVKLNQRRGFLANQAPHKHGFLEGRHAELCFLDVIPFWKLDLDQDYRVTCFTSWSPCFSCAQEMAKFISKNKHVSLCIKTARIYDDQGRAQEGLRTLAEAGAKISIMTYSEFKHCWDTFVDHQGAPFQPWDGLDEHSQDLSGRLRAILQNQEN
UniProt Q9HC16, 191-384 P210R/L234K/C243A/F310K/C321A/C356A: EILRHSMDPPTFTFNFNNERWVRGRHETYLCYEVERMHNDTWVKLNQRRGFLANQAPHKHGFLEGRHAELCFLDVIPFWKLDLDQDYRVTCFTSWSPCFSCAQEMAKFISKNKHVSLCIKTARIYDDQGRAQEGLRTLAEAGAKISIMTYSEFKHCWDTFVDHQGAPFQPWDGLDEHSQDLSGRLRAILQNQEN

Data on three sequences can be found in paper PMC5875850.

Data set [1] addresses A3GCTD WT (A3G191-384-2K3A) L234K,C243A,F310K,C321A,C356A (Homo sapiens) (UniProt Q9HC16). Description: single-turnover deamination kinetics (kobs vs [E], hyperbolic fit). The conditions noted are these: Kd only in Fig 4D, P210R binds tighter; Kinetic Kd: 20 mM Tris pH 8.0, 1 mM DTT, 37 C, 1-50 uM enzyme, 40 nM DNA; SEC/complex: 50 mM Tris pH 7.0, 100 mM NaCl; recombinant protein; protein details: His6-MBP tag removed by SARS-CoV Mpro; label: 5' 32P; single-stranded DNA.

In data set [2] the target is A3GCTD P210R P210R,L234K,C243A,F310K,C321A,C356A (Homo sapiens) (UniProt Q9HC16). The data set is described as above. The settings on record: Kd only in Fig 4D, Kinetic Kd: 20 mM Tris pH 8.0, 1 mM DTT, 37 C, 1-50 uM enzyme, 40 nM DNA, SEC/complex: 50 mM Tris pH 7.0, 100 mM NaCl, recombinant protein, protein details: His6-MBP tag removed by SARS-CoV Mpro, label: 5' 32P, single-stranded DNA.

For the sequence “TAGAAAGGGAGACCCGAAGAGGAAAGGTGA [CCCG 30-mer]”, the binding result in data set [1] and in data set [2] (affinity increased vs WT) was “binds” each time. As to “TAGAAAGGGAGACCCTAAGAGGAAAGGTGA [CCCT 30-mer]”, the binding result in data set [1] and in data set [2] (affinity increased vs WT) was “binds” throughout.

With “TAGAAAGGGAGACCCAAAGAGGAAAGGTGA [CCCA 30-mer]”, in data set [2] (affinity decreased vs WT), the binding result was “binds more weakly”.
